The assay has as its target VSIG3-mCherry expressed in NALM6 cells (human) (UniProt Q5DX21). Nature of the assay: cell aggregation assay.

No constants are given. Whether binding was seen depends on the method and setting. Some results given as binding are weak or reduced against the parent protein; the word gives no strength.

B1: VSIG3-mCherry expressed in NALM6 cells (ligand, UniProt Q5DX21 23-431)
chain: LEVSESPGSIQVARGQPAVLPCTFTTSAALINLNVIWMVTPLSNANQPEQVILYQGGQMFDGAPRFHGRVGFTGTMPATNVSIFINNTQLSDTGTYQCLVNNLPDIGGRNIGVTGLTVLVPPSAPHCQIQGSQDIGSDVILLCSSEEGIPRPTYLWEKLDNTLKLPPTATQDQVQGTVTIRNISALSSGLYQCVASNAIGTSTCLLDLQVISPQPRNIGLIAGAIGTGAVIIIFCIALILGAFFYWRSKNKEEEEEEIPNEIREDDLPPKCSSAKAFHTEISSSDNNTLTSSNAYNSRYWSNNPKVHRNTESVSHFSDLGQSFSFHSGNANIPSIYANGTHLVPGQHKTLVVTANRGSSPQVMSRSNGSVSRKPRPPHTHSYTISHATLERIGAVPVMVPAQSRAGSLV
Regarding B1, the binding entry is “binds”.

For the origin of these results see paper doi:10.1101/2024.08.02.606340.
